Earlier results on one compound are cited in patent publication US20050159439A1, “Management of postoperative pain” (priority 2001, published 2005).

Molecules are shown by their SMILES.

The test system of this data set is subjects operated on for lumbar disc herniation. As to conditions: free morphine in the epidural space.

Consider `CN1CC[C@]23c4c5ccc(O)c4O[C@H]2[C@@H](O)C=C[C@H]3[C@H]1C5` [morphine], for which the “Time remaining effective as an analgesic” value is 6 to 24 h.
